This test concerns the target GST-DysSR22-23 (Dystrophin spectrin repeats 22-23 fused to GST) (Drosophila melanogaster). As to the kind of experiment: pull-down; GST or GST-DysSR22-23 on Glutathione Sepharose 4B with in vitro translated S^35-labeled Exo70; 50mM Tris HCl, 100mM NaCl, 0.01% Triton-X100, 0.1% BSA at 20°C for 12 hours; only the target purified.

No constants are given. Whether binding was seen depends on the method and setting. In cells and extracts the contact can be indirect. Binding can be weak; no strength is given.

B1: Exo70 (exocyst subunit) (protein, UniProt Q9VSJ8 1-693)
chain: MNNLDSSLQAHNKLEKEATNLALLKDRVDKYHDLSTQMSSILTIFEKRLGNLEQTILPVYQETEQLQKRQQNLEATLNCLESVLSHYDVSQEVCQLIHQGPVEGNISVFLDALAKLRDANDYFRHNNSQSVELENVTSLFNTGCEGLSQHYSMLLKKHSAPLKPVELLDLIYIEDDSSDEYTSFRQLSQTTREELYTISHWLEQNLREYTNIYATERGEVVLRSLQLLKDHQKSNSWGHEALRPRHSGRQTEPKKTTSARLQQIFEKKANKLYLRATQTIEQSTGFSIKKASSHSDHLTSEDLMDGDQELDKYLVMLLGLQRLLNWERAIMIDIIPQSKHNEVFATLAYNAIDLVVKDAEAITQRILRCISRKEWTSALGIFSALKRVILLQPDIDRTYDPAQREQLKKVLKKLQHTGAKALEHFLDVVKGESSTNIVGQSNVPKDATVHELTSNTIWFIEHLYDHFDVIGSILAQDVLYSTQLDTILMKKALPVEERNKALLAIYIKKALAELNLSIMNKCEQYNDQATKHLFRLNNIHYILKSLQRSNLIDLVTLAEPECEHSYMEMIRELKASYQKTWSKMLVGIYSLDELPKPVAGKVKDKDRSVLKERFSNFNKDFEEACKIQRGISIPDVILREGIKRDNVEHILPIYNRFYEIYSGVHFSKNPDKYVKYRQHEINAMLSKLFDDSA
modifications: S^35-labeled
Regarding B1, the binding entry is listed as “binds”.

The record behind these values is article PMC10939200.
